This note sets out measurements from the supplement of paper PMC11006884.

By UniProt entry, the sequences of proteins in these tests, tags left out. Where a name states a change or a piece, a line headed by the entry shows the natural chain unless it says otherwise.
UniProt P49327, whole entry, looked up: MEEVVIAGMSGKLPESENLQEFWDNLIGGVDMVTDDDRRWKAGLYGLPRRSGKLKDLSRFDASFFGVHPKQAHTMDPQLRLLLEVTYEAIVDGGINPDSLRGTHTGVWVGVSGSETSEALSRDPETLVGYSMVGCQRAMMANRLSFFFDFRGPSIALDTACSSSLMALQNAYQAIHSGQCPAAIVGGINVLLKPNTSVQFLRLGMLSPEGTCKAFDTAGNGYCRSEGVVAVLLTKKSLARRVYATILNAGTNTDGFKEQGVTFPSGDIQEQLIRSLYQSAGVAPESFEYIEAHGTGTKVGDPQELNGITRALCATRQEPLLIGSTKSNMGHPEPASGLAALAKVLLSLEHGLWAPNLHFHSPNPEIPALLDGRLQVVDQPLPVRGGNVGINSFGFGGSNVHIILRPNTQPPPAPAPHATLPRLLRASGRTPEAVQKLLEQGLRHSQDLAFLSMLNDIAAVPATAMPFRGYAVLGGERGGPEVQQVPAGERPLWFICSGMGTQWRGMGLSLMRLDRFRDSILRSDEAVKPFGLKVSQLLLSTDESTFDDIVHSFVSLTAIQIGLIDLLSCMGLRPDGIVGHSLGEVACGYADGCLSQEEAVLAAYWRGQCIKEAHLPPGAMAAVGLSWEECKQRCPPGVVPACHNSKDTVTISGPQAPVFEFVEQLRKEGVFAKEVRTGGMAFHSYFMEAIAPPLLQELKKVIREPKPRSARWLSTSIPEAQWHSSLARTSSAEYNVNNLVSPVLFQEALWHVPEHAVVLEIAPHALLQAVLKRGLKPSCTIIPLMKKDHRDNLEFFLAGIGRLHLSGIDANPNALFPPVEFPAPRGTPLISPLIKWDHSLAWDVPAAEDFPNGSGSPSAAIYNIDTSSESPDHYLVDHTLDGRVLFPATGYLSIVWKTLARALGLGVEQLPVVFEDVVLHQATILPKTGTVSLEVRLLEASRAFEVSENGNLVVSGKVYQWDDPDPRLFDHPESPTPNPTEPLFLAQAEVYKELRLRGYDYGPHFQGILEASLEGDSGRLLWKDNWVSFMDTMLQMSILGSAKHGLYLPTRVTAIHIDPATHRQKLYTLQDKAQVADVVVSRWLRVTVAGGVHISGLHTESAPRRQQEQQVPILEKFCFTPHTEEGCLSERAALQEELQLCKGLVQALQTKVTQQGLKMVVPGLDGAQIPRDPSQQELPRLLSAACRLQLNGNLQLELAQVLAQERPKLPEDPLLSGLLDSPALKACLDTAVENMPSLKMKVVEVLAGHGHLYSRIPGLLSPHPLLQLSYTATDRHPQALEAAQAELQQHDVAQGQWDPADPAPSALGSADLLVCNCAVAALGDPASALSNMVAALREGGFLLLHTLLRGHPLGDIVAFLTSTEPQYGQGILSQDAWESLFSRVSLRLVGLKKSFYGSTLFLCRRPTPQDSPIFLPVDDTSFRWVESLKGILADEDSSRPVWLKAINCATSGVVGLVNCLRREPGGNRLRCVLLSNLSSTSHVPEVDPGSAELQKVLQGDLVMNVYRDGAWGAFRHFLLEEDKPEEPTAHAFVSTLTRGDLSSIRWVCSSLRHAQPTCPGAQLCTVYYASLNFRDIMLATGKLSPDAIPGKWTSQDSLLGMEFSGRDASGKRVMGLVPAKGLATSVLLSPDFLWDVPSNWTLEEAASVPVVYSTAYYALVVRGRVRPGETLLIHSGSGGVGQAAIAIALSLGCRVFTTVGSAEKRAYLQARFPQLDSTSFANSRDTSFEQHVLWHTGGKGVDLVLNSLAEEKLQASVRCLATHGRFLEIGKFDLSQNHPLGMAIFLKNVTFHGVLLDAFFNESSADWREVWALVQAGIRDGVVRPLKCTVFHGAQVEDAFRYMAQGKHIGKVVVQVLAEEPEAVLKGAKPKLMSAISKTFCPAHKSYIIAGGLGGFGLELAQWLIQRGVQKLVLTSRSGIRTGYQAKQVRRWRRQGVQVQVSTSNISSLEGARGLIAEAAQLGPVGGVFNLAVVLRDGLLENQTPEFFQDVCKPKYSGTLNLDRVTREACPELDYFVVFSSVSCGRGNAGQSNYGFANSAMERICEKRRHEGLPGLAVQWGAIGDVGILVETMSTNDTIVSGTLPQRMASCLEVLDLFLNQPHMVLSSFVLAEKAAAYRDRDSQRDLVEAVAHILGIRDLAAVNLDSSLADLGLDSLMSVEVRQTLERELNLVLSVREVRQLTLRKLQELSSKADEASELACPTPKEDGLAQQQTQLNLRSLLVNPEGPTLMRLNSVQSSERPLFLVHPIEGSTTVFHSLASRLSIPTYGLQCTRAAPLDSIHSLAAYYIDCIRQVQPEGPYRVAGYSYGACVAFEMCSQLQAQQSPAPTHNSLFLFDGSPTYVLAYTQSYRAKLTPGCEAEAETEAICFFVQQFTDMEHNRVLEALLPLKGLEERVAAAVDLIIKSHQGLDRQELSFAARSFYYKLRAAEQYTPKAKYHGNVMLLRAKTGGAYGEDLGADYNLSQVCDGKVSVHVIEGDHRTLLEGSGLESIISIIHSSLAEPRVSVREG
UniProt P49368: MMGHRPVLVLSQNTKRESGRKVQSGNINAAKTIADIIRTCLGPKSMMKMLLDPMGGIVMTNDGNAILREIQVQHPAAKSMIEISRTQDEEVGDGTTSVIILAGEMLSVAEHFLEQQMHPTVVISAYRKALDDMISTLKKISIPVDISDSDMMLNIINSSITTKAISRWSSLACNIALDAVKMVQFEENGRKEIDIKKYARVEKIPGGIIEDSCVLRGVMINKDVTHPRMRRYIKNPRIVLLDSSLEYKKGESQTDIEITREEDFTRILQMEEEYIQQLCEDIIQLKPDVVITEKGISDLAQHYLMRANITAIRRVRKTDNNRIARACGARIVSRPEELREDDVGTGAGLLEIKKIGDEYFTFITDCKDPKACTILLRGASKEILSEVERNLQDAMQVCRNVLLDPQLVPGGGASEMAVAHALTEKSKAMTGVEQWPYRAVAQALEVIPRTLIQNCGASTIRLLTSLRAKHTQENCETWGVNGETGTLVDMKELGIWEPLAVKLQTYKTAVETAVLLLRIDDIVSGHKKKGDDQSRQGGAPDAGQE
UniProt P50990: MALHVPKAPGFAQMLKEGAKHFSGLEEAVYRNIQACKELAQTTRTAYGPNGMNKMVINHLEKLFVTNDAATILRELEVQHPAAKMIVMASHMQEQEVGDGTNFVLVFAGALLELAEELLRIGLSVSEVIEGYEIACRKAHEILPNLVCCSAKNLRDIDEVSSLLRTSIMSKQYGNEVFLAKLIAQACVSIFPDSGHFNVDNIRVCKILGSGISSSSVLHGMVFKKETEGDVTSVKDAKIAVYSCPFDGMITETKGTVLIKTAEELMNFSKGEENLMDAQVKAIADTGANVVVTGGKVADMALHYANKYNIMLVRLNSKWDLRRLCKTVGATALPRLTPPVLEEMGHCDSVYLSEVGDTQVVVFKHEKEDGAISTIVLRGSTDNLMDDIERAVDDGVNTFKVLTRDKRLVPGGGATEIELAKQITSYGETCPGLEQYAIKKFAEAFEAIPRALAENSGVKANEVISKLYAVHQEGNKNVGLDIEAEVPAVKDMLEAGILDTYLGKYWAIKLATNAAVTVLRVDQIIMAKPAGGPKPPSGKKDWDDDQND
UniProt P46459: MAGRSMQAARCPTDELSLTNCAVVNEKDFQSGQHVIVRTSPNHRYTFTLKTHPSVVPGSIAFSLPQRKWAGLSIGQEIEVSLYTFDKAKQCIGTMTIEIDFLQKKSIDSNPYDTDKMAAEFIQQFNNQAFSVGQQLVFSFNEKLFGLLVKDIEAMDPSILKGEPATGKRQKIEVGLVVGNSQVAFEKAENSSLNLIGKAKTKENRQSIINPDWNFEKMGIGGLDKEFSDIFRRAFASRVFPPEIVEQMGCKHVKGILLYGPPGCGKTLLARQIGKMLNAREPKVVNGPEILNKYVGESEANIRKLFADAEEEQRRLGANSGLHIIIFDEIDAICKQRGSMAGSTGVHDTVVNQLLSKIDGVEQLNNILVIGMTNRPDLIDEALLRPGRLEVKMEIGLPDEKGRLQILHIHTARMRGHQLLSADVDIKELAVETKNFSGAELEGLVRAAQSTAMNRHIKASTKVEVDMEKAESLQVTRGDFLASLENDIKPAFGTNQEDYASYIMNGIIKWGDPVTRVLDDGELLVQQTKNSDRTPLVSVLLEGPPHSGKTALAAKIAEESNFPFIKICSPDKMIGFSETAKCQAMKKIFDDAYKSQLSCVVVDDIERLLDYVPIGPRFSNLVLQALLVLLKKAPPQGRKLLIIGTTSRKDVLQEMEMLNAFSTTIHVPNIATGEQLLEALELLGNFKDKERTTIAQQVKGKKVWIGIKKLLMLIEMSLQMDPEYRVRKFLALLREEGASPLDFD
UniProt P49591: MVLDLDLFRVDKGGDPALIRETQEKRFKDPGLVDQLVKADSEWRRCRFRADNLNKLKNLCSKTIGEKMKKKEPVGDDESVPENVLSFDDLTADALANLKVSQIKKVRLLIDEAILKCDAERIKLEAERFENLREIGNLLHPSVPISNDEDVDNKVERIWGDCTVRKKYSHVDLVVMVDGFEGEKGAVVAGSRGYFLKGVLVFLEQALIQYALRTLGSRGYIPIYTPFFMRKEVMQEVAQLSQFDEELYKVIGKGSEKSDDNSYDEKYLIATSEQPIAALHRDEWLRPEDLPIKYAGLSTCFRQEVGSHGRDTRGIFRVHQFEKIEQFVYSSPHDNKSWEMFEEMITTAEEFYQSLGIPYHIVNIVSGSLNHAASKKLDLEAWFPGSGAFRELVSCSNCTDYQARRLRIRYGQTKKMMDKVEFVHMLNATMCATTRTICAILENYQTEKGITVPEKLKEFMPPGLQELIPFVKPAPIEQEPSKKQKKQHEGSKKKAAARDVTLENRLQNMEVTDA
UniProt P45880: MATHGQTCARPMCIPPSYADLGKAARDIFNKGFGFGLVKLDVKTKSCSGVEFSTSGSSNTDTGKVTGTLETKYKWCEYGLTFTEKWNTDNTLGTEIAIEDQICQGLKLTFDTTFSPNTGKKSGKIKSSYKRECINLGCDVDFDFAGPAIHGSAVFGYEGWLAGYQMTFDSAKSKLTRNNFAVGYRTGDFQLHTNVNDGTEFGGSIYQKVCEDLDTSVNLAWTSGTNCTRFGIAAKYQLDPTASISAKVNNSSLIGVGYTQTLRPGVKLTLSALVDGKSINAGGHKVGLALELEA
UniProt P48147: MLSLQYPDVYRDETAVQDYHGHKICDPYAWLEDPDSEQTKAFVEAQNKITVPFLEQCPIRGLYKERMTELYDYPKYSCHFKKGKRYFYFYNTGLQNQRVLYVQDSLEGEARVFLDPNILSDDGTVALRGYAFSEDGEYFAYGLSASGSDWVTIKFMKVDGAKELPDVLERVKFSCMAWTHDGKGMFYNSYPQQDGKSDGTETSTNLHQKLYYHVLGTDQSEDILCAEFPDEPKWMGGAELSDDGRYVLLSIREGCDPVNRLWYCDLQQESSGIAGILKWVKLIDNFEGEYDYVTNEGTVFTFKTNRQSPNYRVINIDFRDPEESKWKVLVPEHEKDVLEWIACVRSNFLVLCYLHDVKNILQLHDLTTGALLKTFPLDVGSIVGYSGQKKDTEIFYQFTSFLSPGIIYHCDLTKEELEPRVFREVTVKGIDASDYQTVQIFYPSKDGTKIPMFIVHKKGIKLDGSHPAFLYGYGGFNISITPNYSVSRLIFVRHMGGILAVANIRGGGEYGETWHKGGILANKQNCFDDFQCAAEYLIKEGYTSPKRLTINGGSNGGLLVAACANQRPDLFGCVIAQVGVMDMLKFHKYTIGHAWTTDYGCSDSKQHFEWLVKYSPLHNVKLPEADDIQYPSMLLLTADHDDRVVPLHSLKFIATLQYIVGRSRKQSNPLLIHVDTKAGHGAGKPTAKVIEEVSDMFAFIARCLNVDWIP
UniProt P49759: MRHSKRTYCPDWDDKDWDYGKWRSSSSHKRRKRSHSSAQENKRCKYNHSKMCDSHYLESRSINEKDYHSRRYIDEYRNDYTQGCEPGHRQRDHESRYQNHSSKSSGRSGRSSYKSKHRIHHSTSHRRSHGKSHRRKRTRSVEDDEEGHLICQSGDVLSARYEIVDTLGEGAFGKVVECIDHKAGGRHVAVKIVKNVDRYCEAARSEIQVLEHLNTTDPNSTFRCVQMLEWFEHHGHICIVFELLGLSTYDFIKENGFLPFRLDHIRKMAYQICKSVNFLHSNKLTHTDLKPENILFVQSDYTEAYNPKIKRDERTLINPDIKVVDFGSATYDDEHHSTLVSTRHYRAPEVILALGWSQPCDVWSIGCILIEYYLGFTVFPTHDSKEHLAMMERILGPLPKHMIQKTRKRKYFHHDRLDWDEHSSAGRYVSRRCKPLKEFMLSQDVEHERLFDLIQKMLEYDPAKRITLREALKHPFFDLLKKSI

This is a selection; strong and weak results do not stand in their true shares.

Compound in this assay: COC(=O)C#Cc1ccccc1 [methyl 3-phenylpropiolate]
The experiment in a line: log2 ratio of iodoacetamide-alkyne labeling of the cysteine site, DMSO over compound (competition); higher = stronger covalent engagement of the cysteine by the compound, active = 1 or more. The following applies: 500 µM; treatment time 1 h; system: HEK293T cell lysate. In a few lines: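 HEK293T lysate (2 mg/mL) was treated with DMSO or electrophile (500 µM, 1 h, ambient temperature), then iodoacetamide alkyne (1 h), clicked to sCIP-TMT reagents, pooled, trypsin-digested overnight at 37 °C, streptavidin-enriched and acid-eluted. Peptides were run on Orbitrap Eclipse LC-MS/MS with FAIMS and quantified in FragPipe. The log2 competition ratio per cysteine is mean control-channel over mean compound-channel reporter intensity. Duplicate channels and three replicates were used, and cysteines quantified in only one replicate were excluded.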
Consider RPL27A C144 (UniProt P46776), for which the “log2 ratio of iodoacetamide-alkyne labeling” value (“log2 ratio” below) was inactive: 0.155. In the case of FASN C2273 (UniProt P49327) it was inactive: 0.224; in that of RANBP2 C206 (UniProt P49792), inactive: 0.511; in that of CCT3 C213 (UniProt P49368), inactive: 0.101. In the case of VASP C334 (UniProt P50552) it was inactive: 0.404.

Consider FASN C2468 (UniProt P49327), for which the “log2 ratio” value is inactive: 0.138. The value for FXR2 C87 (UniProt P51116) was inactive: 0.101; that for RANGAP1 C274 (UniProt P46060) was inactive: 0.753.

Take GMPS C631 (UniProt P49915): the “log2 ratio” value was inactive: 0.369. In the case of FASN C1471 (UniProt P49327) it was inactive: 0.341. For CCT8 C430 (UniProt P50990), the “log2 ratio” value is inactive: 0.518. As for NSF C568 (UniProt P46459), the “log2 ratio” value was inactive: 0.221. In the case of FASN C2091 (UniProt P49327) it was inactive: -0.224. As for RPL34 C83 (UniProt P49207), the “log2 ratio” value was inactive: 0.281. In the case of CCT4 C337 (UniProt P50991) it was inactive: 0.0635; in that of UniProt P49591_C398, inactive: -0.294.

Turning to MSH2 C873 (UniProt P43246), the “log2 ratio” value is inactive: 0.859. In the case of VASP C64 (UniProt P50552) it was inactive: 0.0103; in that of VDAC2 C47 (UniProt P45880), inactive: 0.538; in that of PREP C25 (UniProt P48147), inactive: 0.143. Take CLK1 C200 (UniProt P49759): the “log2 ratio” value is inactive: -0.0452. The value for GMPS C137 (UniProt P49915) was inactive: 0.217; that for IQGAP1 C660 (UniProt P46940) was inactive: 0.32; that for FASN C2202 (UniProt P49327) was inactive: 0.222. The value for UTRN C2185 (UniProt P46939) was inactive: 0.26; that for MAP1B C2088 (UniProt P46821) was inactive: 0.329; that for UniProt P49591_C431 was inactive: -0.00377. In the case of NDUFV1 C125 (UniProt P49821) it was inactive: 0.521; in that of RANBP2 C348 (UniProt P49792), inactive: 0.0938; in that of CAPZA2 C111 (UniProt P47755), inactive: 0.0355.

In the case of IDH3A C222 (UniProt P50213), the “log2 ratio” value is inactive: 0.38. The value for PDLIM4 C44 (UniProt P50479) was inactive: -0.0459; that for RPS5 C172 (UniProt P46782) was inactive: 0.115. The value for CCT3 C398 (UniProt P49368) was inactive: 0.106. The value for MAP1B C1814 (UniProt P46821) was inactive: 0.438; that for NASP C254 (UniProt P49321) was inactive: 0.246.
